PubChem BioAssay AID652272, Drosophila RNAi Screening Center | 2013
In all, the deposit lists about 21,000 reagents; shown is an unselected part of those that have a named target and a result. In the full data, 503 (2.4%) are marked active. 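Raw plate light values, not normalised; calls rest on replicate z-scores that were not deposited; hits include reporter decreases as well as increases.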 Reagent sequences are not shown. Not given: the amount of reagent, the time to read-out.

- Purpose: 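Genome-wide knock-down search for components of Hedgehog signalling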 (primary screen)
- Cells: Drosophila clone 8 (Cl8) cells
- Knock-down reagent: long dsRNA against Drosophila genes
- Detection: 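Plate reader light from a firefly reporter under a ptc promoter fragment that responds to Hedgehog, with Renilla light as transfection reference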
- Scale: firefly Hh reporter signal: higher = more ptc reporter light; Renilla reference signal: higher = more Renilla control light
- Active means: 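Hit when the z-score averaged over two replicates is under -2 or over +3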
- Calls: active = hit: reporter lowered or raised; inactive = not a hit

no.	predicted target	DRSC id	firefly Hh reporter signal, replicate 1	firefly Hh reporter signal, replicate 2	Renilla reference signal, replicate 1	Renilla reference signal, replicate 2	outcome
1	CG42271	DRSC19809	1.08e5	88362	2595	2176	inactive
2	CG32219	DRSC09641	3.27e5		7053		inactive
3	CR43105	DRSC05547	1.65e5	1.53e5	3968	9592	inactive
4	CG11069	DRSC14289	77591	82368	3312	3296	inactive
5	crq	DRSC00810	1.04e5	1.17e5	2401	2691	inactive
6	CG8067	DRSC07065	1.17e5	94192	5138	3868	inactive
7	phu	DRSC16390	62312	1.12e5	2322	2992	inactive

Continued (2 carried over from the part before).
no.	predicted target	DRSC id	firefly Hh reporter signal, replicate 1	firefly Hh reporter signal, replicate 2	Renilla reference signal, replicate 1	Renilla reference signal, replicate 2	outcome
6	CG8067	DRSC07065	1.17e5	94192	5138	3868	inactive
7	phu	DRSC16390	62312	1.12e5	2322	2992	inactive
8	CG15531	DRSC15068	74443	87280	2020	2069	inactive
9	Glys	DRSC16130	1.43e5	1.17e5	5857	4556	inactive
10	Ir76a	DRSC10987	89664	64484	3635	2919	inactive
11	CG34310	DRSC00943	6.22e5	2.17e5	30219	9094	inactive
12	CG18507	DRSC01334	5.58e5	2.70e5	25427	9773	inactive
13	CG18507	DRSC01914	1.34e5	69607	3405	6208	inactive
14	kon	DRSC02033	75744	51065	3178	1936	inactive
15	robo1	DRSC04712	1.01e5	81500	2882	7024	inactive
16	CG12715	DRSC19492	58856	2.67e5	2133	9289	inactive
17	Hydr2	DRSC00607	99229	79800	4603	3603	inactive
18	SMC6	DRSC15829	7.35e5	1.62e5	37778	4491	inactive
19	CG10911	DRSC06008	80860	86880	1938	6081	inactive
20	CG8478	DRSC16427	92172	1.53e5	2426	4336	inactive
21	CG17681	DRSC02632	1.13e5	63479	2626	5656	inactive
22	PIG-L	DRSC15577	5.71e5	98901	28128	2680	inactive
23	sds22	DRSC17052	85178	85142	2252	2124	inactive
